# Results reported in PubChem BioAssay AID1487 (National Center for Advancing Translational Sciences (NCATS), 2009).
# The campaign covered roughly 200,000 compounds. About 25 (0.01%) were called active. The inconclusive results got no clear call from the source; some entries with a clear call stand among them for comparison. Calls come from the whole dose curve; as a rule, active = well fitted inhibition curve with a large enough effect in the signal ratio, with a control signal flat (not every such curve was filed as active); inconclusive = small, poorly fitted or top-dose-only effect, or effect the other way, or a change in a side signal; inactive = flat fitted curve, though single readings scatter; the % refers to the signal ratio. A potency beside an inconclusive call is a rough fit, not a confirmed value.
# Test: qHTS Assay for Modulators of Lamin A Splicing
# Details: HeLa LMNA splicing GFP/RFP minigene ratio, 48 h; ratio change, negative = inhibition: at 46.1 µM (top of the series) unless noted
# Outline: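 S3 HeLa stable clones carrying a lamin A-EGFP splicing minigene plus DsRed2 were seeded at 600 cells/well in Opti-MEM with 2% FBS, pin-dosed and incubated 48 h at 37°C. Acumen cytometry (488 nm) gave the GFP/RFP total-intensity ratio.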
# % is set by controls: 0 for no effect and ±100 for the full control effect; potency is the fitted concentration of half-maximal effect.
SMILES,"ratio change, negative = inhibition",Potency
Cc1cc(Br)c(NC(=O)COC(=O)CSc2nnc(-c3ccc(Cl)cc3)o2)c(Br)c1,inconclusive: 6.15%,–
CCC(C)CCCCC(=O)NC(CCN)C(=O)NC(C(=O)NC(CCN)C(=O)NC1CCNC(=O)C(C(C)O)NC(=O)C(CCN)NC(=O)C(CCN)NC(=O)C(CC(C)C)NC(=O)C(Cc2ccccc2)NC(=O)C(CCN)NC1=O)C(C)O (stereo not given),inconclusive: 4.61%,–
CC1=C(C(=O)OCc2ccc3c(c2)OCO3)C(c2ccc(Cl)cc2)NC(=O)N1 (stereo not given),inconclusive: 44.2%,–
CC(OC(=O)C1CCCCC1)c1nc2ccccc2[nH]1 (stereo not given),–,"inconclusive: 12.6 µM [fluorescent, partial curve]"
CN(C)S(=O)(=O)c1ccc(NC(=O)COC(=O)CC2CC3CCC2C3)cc1 (stereo not given),inconclusive: -0.464% [at 46 µM],–
O=C(CSCc1ccccc1)N1CCN(C(=O)c2ccco2)CC1,inactive,–
Cc1cc2nc(N)sc2cc1C,inactive,–
CCOc1cc(-c2nnc(SCC(=O)NCc3ccccc3)nc2-c2ccc(OC)c(OCC)c2)ccc1OC,inconclusive: -2.48% [at 46 µM],–
N#Cc1c(N)nc2c(c1-c1ccncc1)CCCC2,inconclusive: 13.2%,–
Cc1ccc(NC(=O)COC(=O)Cn2c(C)csc2=O)cc1C,inactive,–
COc1ccc(OCc2ccc(-c3nc(C#N)c(N4CCC(C)CC4)o3)o2)cc1,inactive,–
CCCNC(=O)C(=O)NCC(c1ccc2c(c1)OCO2)N1CCOCC1 (stereo not given),inconclusive: 7.64% [at 46 µM],–
CCOc1ccc(NC(=S)N(CCN2CCOCC2)Cc2cc3cc4c(cc3[nH]c2=O)OCO4)cc1,inconclusive: -13.6% [at 46 µM],–
CCCCOCCOCCOCc1cc2c(cc1CCC)OCO2,inconclusive: 12.2%,–
O=C1C(CCCNC(=S)NCc2ccccc2)NC(=S)N1Cc1ccccc1 (stereo not given),inactive,–
CC1=C(C(=O)N2CCOCC2)C(c2ccc(Cl)cc2)NC(=S)N1 (stereo not given),inconclusive: -14.7%,–
C=CCN(CC=C)S(=O)(=O)c1ccc(NC(=S)NC(=O)c2ccco2)cc1,–,"inconclusive: 22.4 µM [falling, single point]"
Cc1cc(C)n(C(=O)c2ccc(NC(=O)C3COc4ccccc4O3)cc2)n1 (stereo not given),inconclusive: 9.27%,–
COc1ccc(Oc2ncc3nc(-c4ccc(Cl)cc4)c(=O)n(C4CC4)c3n2)cc1,inconclusive: -22.5%,–
COc1ccccc1NC(=O)CSc1nc2ccccc2c(=O)n1CCC(=O)NC1CCCCC1,inactive,–
Cc1ccc(C)c(N2CCN(C(=O)Cc3ccc(-n4c(=O)[nH]c5ccsc5c4=O)cc3)CC2)c1,–,"inconclusive: 35.5 µM [falling, single point]"
Cc1ccc(NC(=O)Cn2c(C)cc(C)c(C#N)c2=O)cc1,inactive,–
CC1Cc2cc(/C(O)=C3/C(=O)C(=O)N(Cc4ccco4)C3c3cccs3)ccc2O1 (stereo not given),inactive,–
O=C(Cn1nc(-c2ccccc2)nc(Cc2ccccc2)c1=O)Nc1ccccc1,inactive,–
COc1ccc(S(=O)(=O)NCC(c2ccc(N(C)C)cc2)N2CCc3ccccc32)cc1 (stereo not given),inconclusive: -8.9% [at 46 µM],–

SMILES,"ratio change, negative = inhibition",Potency
CN(CCc1ccccn1)C1CC(=O)N(c2ccc(Cl)cc2)C1=O (stereo not given),inactive,–
N/C(CSc1nc(-c2ccccc2)c(-c2ccccc2)o1)=N\O,inconclusive: 13%,–
c1ccc(-c2csc3ncnc(N4CCc5ccccc5C4)c23)cc1,inconclusive: -39.5%,–
Cc1[nH]c2ccccc2c1/C=N/Nc1ccc([N+](=O)[O-])cc1,–,"inconclusive: 35.5 µM [fluorescent, partial curve]"
CCOC(=O)c1c(NC(=O)CSc2n[nH]c(CNc3ccccc3)n2)sc(C)c1C,inactive,–
O=C(C1CCN(c2ncnc3c2nc2n3CCCCC2)CC1)N1CCN(c2ccc(F)cc2)CC1,inconclusive: -17.2% [at 46 µM],–
COc1ccc(CCN2C(=O)C(Oc3ccccc3C)C2c2ccc3c(c2)OCO3)cc1 (stereo not given),–,"inconclusive: 35.5 µM [falling, single point]"
COC(=O)C1=C2SC(C)C(=O)N2C(N)=C(C#N)C1c1ccc(OC)c(OC)c1 (stereo not given),inconclusive: 5.82%,–
Nc1cc(S(=O)(=O)N2CCCCC2)ccc1Oc1ccc(Cl)cc1,inconclusive: -25.1% [at 46 µM],–
CCC1CN(C(=O)C2CCN(S(=O)(=O)c3c(C)noc3/C=C/c3ccccc3F)CC2)c2cc(Cl)ccc2O1 (stereo not given),inactive,–
OC(COC(c1ccc(Cl)cc1)c1ccc(Cl)cc1)CN1CCN(c2ccccn2)CC1 (stereo not given),–,"inconclusive: 35.5 µM [cytotoxic, single point]"
O=C(O)CSc1nc2ccccc2[nH]1,inconclusive: 31.8%,–
COc1ccc(C(=O)Cc2ccccc2)cc1OC,inactive,–
Cc1cccc(NC(=O)c2cc(S(=O)(=O)NCc3ccc4c(c3)OCO4)ccc2F)c1C,inconclusive: -6.47% [at 46 µM],–
COc1ccccc1-n1c(=O)c2c3c(sc2n(C)c1=O)CN(C(C)=O)CC3,inactive,–
O=C(NCc1ccc2c(c1)CCN2C(=O)c1ccccc1)Nc1cc(F)ccc1F,inconclusive: -13.1% [at 46 µM],–
Cc1ccc(-n2nnnc2Sc2nc([N+](=O)[O-])nn2C)cc1,inconclusive: -32.3%,–
CCCCNC(=O)c1ccc2nc(-c3ccco3)c(-c3ccco3)nc2c1,inactive,–
O=C(CCc1nnc(Cc2c[nH]c3ccccc23)o1)NC(C1CC1)C1CC1,inactive,–
COc1ccc(CCN=Cc2ccccc2O)cc1OC,inconclusive: 23.8% [at 46 µM],–
OCC1(Cc2ccc(Cl)cc2)CCN(CCCc2ccccc2)CC1,inconclusive: -0.356% [at 46 µM],–
Cc1ccc(NS(=O)(=O)c2ccc(C(=O)N3CCN(c4ccccn4)CC3)cc2)cc1,–,"inconclusive: 11.2 µM [falling, partial curve]"
CCN(c1ccc(C)cc1)S(=O)(=O)c1nnc(NC(=O)C2CCCCC2)s1,inconclusive: 3.43% [at 46 µM],–
CCC(C)Oc1nc(C)cc(C)c1S(=O)(=O)c1ccccc1C (stereo not given),inconclusive: 4.49%,–
CCOC(=O)/C(=C\c1ccc([N+](=O)[O-])cc1)C(=O)c1cc(C(C)=O)c(Nc2ccccc2)s1,–,"inconclusive: 10 µM [cytotoxic, single point]"

# In the list so far, these contain a nitro group on carbon:
SMILES,"ratio change, negative = inhibition",Potency
Cc1[nH]c2ccccc2c1/C=N/Nc1ccc([N+](=O)[O-])cc1,–,"inconclusive: 35.5 µM [fluorescent, partial curve]"
Cc1ccc(-n2nnnc2Sc2nc([N+](=O)[O-])nn2C)cc1,inconclusive: -32.3%,–
CCOC(=O)/C(=C\c1ccc([N+](=O)[O-])cc1)C(=O)c1cc(C(C)=O)c(Nc2ccccc2)s1,–,"inconclusive: 10 µM [cytotoxic, single point]"
